Values from PubChem BioAssay AID1224830 (NIAID, 2016).

Test: 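Regulators of TLR4 signalling towards TNF-alpha in macrophage-like cells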 (primary screen)
System: human THP-1 monocytic leukaemia cells, TNF dual-luciferase reporter clone, PMA-differentiated to macrophage-like cells
Reagent: siRNA pool against human genes, 50 nM
Duration: LPS for 4 h, given about 3 days after siRNA transfection
Challenge: bacterial LPS (TLR4 ligand), 10 ng/ml
Read-out: 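TNF firefly reporter luminescence divided by renilla, normalised to the plate median, then turned into a robust z-score for each replicate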
Direction: TNF reporter robust z-score: higher = stronger TNF reporter response to LPS
Rule for the call: 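Each well counts as active if its z-score is over 2.8 or under -1.5; controls are left without a call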
Here is one part, drawn at random, of about 18,000 reagents. In the full data, about 2,900 (16%) were called active. 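Calls are made per well; low scores hint the gene aids the LPS response, high scores that it dampens it.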 Entries without a mark were called inactive. Repeated entries: four replicate wells of each siRNA pool.

GPX2 (GeneID 2877) — TNF reporter robust z-score: 0.37
GPX2 (GeneID 2877) — TNF reporter robust z-score: 0.51
GPX2 (GeneID 2877) — TNF reporter robust z-score: 0.12
GPX2 (GeneID 2877) — TNF reporter robust z-score: 1.41
CLCN4 (GeneID 1183) — TNF reporter robust z-score: 0.29
CLCN4 (GeneID 1183) — TNF reporter robust z-score: 0.95
CLCN4 (GeneID 1183) — TNF reporter robust z-score: -0.03
CLCN4 (GeneID 1183) — TNF reporter robust z-score: 2.97 (active)
RBP2 (GeneID 5948) — TNF reporter robust z-score: 0.28
RBP2 (GeneID 5948) — TNF reporter robust z-score: 5.65 (active)
RBP2 (GeneID 5948) — TNF reporter robust z-score: 1.32
RBP2 (GeneID 5948) — TNF reporter robust z-score: 0.02
DYDC1 (GeneID 143241) — TNF reporter robust z-score: -0.5
DYDC1 (GeneID 143241) — TNF reporter robust z-score: -0.83
DYDC1 (GeneID 143241) — TNF reporter robust z-score: 0
DYDC1 (GeneID 143241) — TNF reporter robust z-score: -0.41
ISY1 (GeneID 57461) — TNF reporter robust z-score: 0.65
ISY1 (GeneID 57461) — TNF reporter robust z-score: 0.08
ISY1 (GeneID 57461) — TNF reporter robust z-score: -0.89
ISY1 (GeneID 57461) — TNF reporter robust z-score: 0.88
SPR (GeneID 6697) — TNF reporter robust z-score: -1.31
SPR (GeneID 6697) — TNF reporter robust z-score: -1.48
SPR (GeneID 6697) — TNF reporter robust z-score: -0.62
SPR (GeneID 6697) — TNF reporter robust z-score: -1.27
TCHHL1 (GeneID 126637) — TNF reporter robust z-score: -1.03
TCHHL1 (GeneID 126637) — TNF reporter robust z-score: -0.97
TCHHL1 (GeneID 126637) — TNF reporter robust z-score: -0.82
TCHHL1 (GeneID 126637) — TNF reporter robust z-score: -0.43
CERS5 (GeneID 91012) — TNF reporter robust z-score: 0.75
CERS5 (GeneID 91012) — TNF reporter robust z-score: -0.05
CERS5 (GeneID 91012) — TNF reporter robust z-score: -0.46
CERS5 (GeneID 91012) — TNF reporter robust z-score: 0.2
DSG1 (GeneID 1828) — TNF reporter robust z-score: 1.85
DSG1 (GeneID 1828) — TNF reporter robust z-score: 1.67
DSG1 (GeneID 1828) — TNF reporter robust z-score: 1.54
DSG1 (GeneID 1828) — TNF reporter robust z-score: 2.71
SEMA3F (GeneID 6405) — TNF reporter robust z-score: -0.43
SEMA3F (GeneID 6405) — TNF reporter robust z-score: 0.78
SEMA3F (GeneID 6405) — TNF reporter robust z-score: -0.9
SEMA3F (GeneID 6405) — TNF reporter robust z-score: 0.12
AADAT (GeneID 51166) — TNF reporter robust z-score: -0.43
AADAT (GeneID 51166) — TNF reporter robust z-score: -0.35
AADAT (GeneID 51166) — TNF reporter robust z-score: -1.08
AADAT (GeneID 51166) — TNF reporter robust z-score: 0
MCEMP1 (GeneID 199675) — TNF reporter robust z-score: -0.53
MCEMP1 (GeneID 199675) — TNF reporter robust z-score: 0.13
MCEMP1 (GeneID 199675) — TNF reporter robust z-score: -0.07
MCEMP1 (GeneID 199675) — TNF reporter robust z-score: 0.17

In a second layout: entries from further up.
{"gene":"GPX2 (GeneID 2877)","TNF reporter robust z-score":0.51}
{"gene":"GPX2 (GeneID 2877)","TNF reporter robust z-score":0.12}
{"gene":"GPX2 (GeneID 2877)","TNF reporter robust z-score":1.41}
{"gene":"CLCN4 (GeneID 1183)","TNF reporter robust z-score":0.29}
{"gene":"CLCN4 (GeneID 1183)","TNF reporter robust z-score":0.95}
{"gene":"CLCN4 (GeneID 1183)","TNF reporter robust z-score":-0.03}
{"gene":"CLCN4 (GeneID 1183)","TNF reporter robust z-score":"2.97 (active)"}
{"gene":"RBP2 (GeneID 5948)","TNF reporter robust z-score":0.28}
